Results published in PubChem BioAssay AID1347426 (Functional Genomics Laboratory (NCATS/FGL), 2020).
In all, about 31,000 sequences went through this assay and about 1,400 (4.5%) were called active.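 How the source made its calls: active means median seed-adjusted z-score above 1 or below -1; inactive means the rest.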 The list shows a part of the results.

Test: Novel Modifiers of Survival Motor Neuron (SMN) Protein: Gene Identification via Genome-wide siRNA Screen;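 further: luminescence tracks full-length SMN protein made from the SMN2 reporter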
Settings: HEK293T SMN2-luciferase reporter, siRNA knockdown, 72 h; actives lie on both sides
Summary of the method: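 siRNA screen, 10418 genes ×3 siRNAs; 1 pmol/well, lipid reverse transfection into HEK293T SMN2-luc reporter line. 72 h, 37 °C, 5% CO2; ONE-Glo readout. Data: neg-ctrl normalized, log10, MAD; hit = MAD >1.0 or < -1.0.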
For CCACCAAAGUUCACCCUGATT against LMNA, the median seed-adjusted z-score was inactive: -0.409. With GAAUGAAGAAGAUUAAUUUTT against COX17 the median seed-adjusted z-score was inactive: 0.772. In the case of GUCCAAGGAUUUAAAAGAUTT against HSPA4, the median seed-adjusted z-score is reported as inactive: 0.143. For CGACCUUGUUAACAGCUAUTT against FUCA1, the median seed-adjusted z-score was inactive: -0.94. With GGGAGACGAUUGUUCAUCATT against XPA the median seed-adjusted z-score was active: 2.03. With GACUUAUACCUGCGAAUUATT against PEX13 the median seed-adjusted z-score was inactive: 0. With AGAUAACAGUGUGCUCAUATT against RHD the median seed-adjusted z-score was inactive: 0.496. For CAGUGAACCUCUAAUAGAATT against PIP5K1B, the median seed-adjusted z-score was inactive: 0.0917. With CAUCAAGUAUGGACAUUUATT against CD80 the median seed-adjusted z-score was inactive: 0.553. In the case of CACCCUCACUUUGUACGAUTT against MYH13, the median seed-adjusted z-score is reported as inactive: 0.612. With CAGCGGAUGUUAGGUUUAATT against PEX13 the median seed-adjusted z-score was inactive: 0. With GGCUCUUCAUGGACCUUCATT against GPR173 the median seed-adjusted z-score was inactive: -0.147. With GCAUGUCUAAACUUACUAATT against SSX2IP the median seed-adjusted z-score was inactive: -0.0799. With CGUGAUGACUAUCCAUCAATT against RBMX the median seed-adjusted z-score was inactive: 0.0941. In the case of GAGCAUUCCUUCAAAUGGATT against SGK3, the median seed-adjusted z-score is reported as inactive: 0.178. For GAUCCUUUCUCGUACAGAATT against KCTD12, the median seed-adjusted z-score was inactive: 0.431. With GCACUAUGCACCUACCCAATT against GPT2 the median seed-adjusted z-score was inactive: 0.0268. For GCAAUAGUCCCAAAAGCAATT against CD6, the median seed-adjusted z-score was inactive: -0.33. For GUUGACCUCCGAACAGUUATT against STOML3, the median seed-adjusted z-score was inactive: -0.0711. In the case of CCAUCAAGUUUGAUUUACATT against CCNK, the median seed-adjusted z-score is reported as inactive: -0.717. For CAGGAAUCUAGGUACCAGATT against FUT5, the median seed-adjusted z-score was inactive: 0. With GGAAUAGAACAAUUGAAAATT against ZDHHC3 the median seed-adjusted z-score was inactive: 0.229. For GCAUCAUCCGAAUCAAGAATT against CLCN2, the median seed-adjusted z-score was inactive: -0.0786. For GAACGGCCUUUACUUGGAATT against KCTD18, the median seed-adjusted z-score was inactive: -0.0473. With CUAAGACCAGUAUAGUAAATT against ARF6 the median seed-adjusted z-score was inactive: -0.805. With AGAUCAAGGAGCUUGGAAATT against P2RX6 the median seed-adjusted z-score was inactive: -0.351. With GAAGCUCACCAAAAACUAUTT against P2RY6 the median seed-adjusted z-score was inactive: 0.00327. For GGUUAGCUUAUGUUACAUATT against E2F3, the median seed-adjusted z-score was inactive: -0.215. In the case of GAGUUUUUCGAGCUCAUGATT against PGS1, the median seed-adjusted z-score is reported as active: 1.36. With ACCAAAAUCAGGGAAUUUATT against NEDD9 the median seed-adjusted z-score was inactive: 0. In the case of GACAGUAUCUGGAAGUUCUTT against TSC22D4, the median seed-adjusted z-score is reported as inactive: -0.508. With CGAGUUACCUGUUAAACUUTT against IGF1 the median seed-adjusted z-score was inactive: 0.559. For GGUGUACGGAGUGAACAUATT against GFPT1, the median seed-adjusted z-score was inactive: 0.416. In the case of AGAUAUUUGUUAUCGCUGUTT against CNBP, the median seed-adjusted z-score is reported as active: -1.14. In the case of GAAGUAACAUUGAGGGCUUTT against CD93, the median seed-adjusted z-score is reported as inactive: -0.0879. With AACUCAAUUGGGCAUUUAATT against KCNIP4 the median seed-adjusted z-score was inactive: -0.401. In the case of CUAGAGCAAUUGAAGGUAATT against HIBCH, the median seed-adjusted z-score is reported as inactive: 0.0655. For CGACCUUCCGAGCUGAAAATT against NARS2, the median seed-adjusted z-score was inactive: 0.505. In the case of GGACCAGAGAACUCGAUUUTT against SERPINA13, the median seed-adjusted z-score is reported as inactive: -0.403. In the case of GGUGGGUUUUGGAUACUGATT against G6PC, the median seed-adjusted z-score is reported as inactive: -0.628. With GCAGAUCCCUUGUUUUCCUTT against APLN the median seed-adjusted z-score was inactive: 0.0181. In the case of GAGUCACGGUUGAGAUACATT against SEMA3D, the median seed-adjusted z-score is reported as inactive: -0.0201. With GCACCUCUCUGCUAACUGUTT against PGC the median seed-adjusted z-score was inactive: 0.884. With GAGAAGCAUCUGAAAGAAATT against DLL1 the median seed-adjusted z-score was inactive: 0. In the case of ACUCAUCUCAGGACACUGATT against RPS6KL1, the median seed-adjusted z-score is reported as inactive: 0.0816. With CAGACUUUGCUAUUCGUUUTT against ABCA6 the median seed-adjusted z-score was inactive: 0.113. In the case of AGCACUAACUAUUUCAAAATT against UBE2D2, the median seed-adjusted z-score is reported as inactive: 0.574. In the case of AGAUUUAUCUUGAAGCUGATT against ARL4D, the median seed-adjusted z-score is reported as inactive: -0.523. With ACUCAGUGAAUGUGGAUUATT against NDUFA4 the median seed-adjusted z-score was inactive: 0. For GGCUCACGGAAUUUGAAGATT against BRF1, the median seed-adjusted z-score was inactive: -0.261. In the case of GAAAAAUACCUAUUCUAGATT against F7, the median seed-adjusted z-score is reported as inactive: 0.277. For GCAUUGAUCCAAAAGAAGATT against FOXN2, the median seed-adjusted z-score was inactive: 0.0947. In the case of GGUCUAUGGUGUCCACUUUTT against HGD, the median seed-adjusted z-score is reported as inactive: -0.0401. With AGAAACGAAUUCCAUUUUATT against KCTD14 the median seed-adjusted z-score was inactive: -0.166. In the case of CAGUAGCAGUGGAAUGGGATT against RBMX, the median seed-adjusted z-score is reported as inactive: 0.0941. With CCGUAUAUAUCAAUAUGAATT against ANKRD30A the median seed-adjusted z-score was inactive: 0.259. With GCAUCCGAAAGAUUGGUUATT against GRIA1 the median seed-adjusted z-score was inactive: 0.927. In the case of CCUCAAAUUUUACUAAUCATT against ZNF708, the median seed-adjusted z-score is reported as inactive: 0.0562. In the case of GAUCCUACAGUGGAGAAUATT against RHEBL1, the median seed-adjusted z-score is reported as inactive: -0.268. For GAGUAAAUGUGGAGCAUAATT against AGPS, the median seed-adjusted z-score was inactive: 0.289. In the case of CACUUCUCCCAGAUCGUUATT against FDPS, the median seed-adjusted z-score is reported as inactive: 0.0115. With GAAGACUUCUUUCUCUACATT against GABARAP the median seed-adjusted z-score was inactive: 0.418. In the case of CGGAGUUCUUGGUCCAGAUTT against VPS4A, the median seed-adjusted z-score is reported as inactive: 0. For GAUGAAUACCUGAAAUGUATT against ART3, the median seed-adjusted z-score was inactive: -0.434. In the case of CUACCCAACCUGUAGCUAATT against UBE2J1, the median seed-adjusted z-score is reported as active: -1.2. For GCAGGAGCUGUAUUUGAUGTT against NUDT6, the median seed-adjusted z-score was inactive: 0.281. In the case of CCGCUGCGUUUAUAUGGAUTT against ZZEF1, the median seed-adjusted z-score is reported as inactive: 0.167. With CAACCCAGCCCAUCCCAAATT against PDK2 the median seed-adjusted z-score was inactive: -0.481. In the case of CUUUCGGUUUGAAGAAUAATT against ZC3H15, the median seed-adjusted z-score is reported as inactive: 0.191.
